± gives the standard deviation of the averaged measurements. Only a part is listed here, and it is no random draw. Most entries show no effect beyond the scatter of the controls.
Compound: Nc1ncnc2c1ncn2[C@@H]1O[C@H](COP(=O)(O)OP(=O)(O)NP(=O)(O)O)[C@@H](O)[C@H]1O [adenylyl imidodiphosphate]
Assay: NP40-soluble protein abundance relative to vehicle (solubility fold change) (ratio); higher = more soluble protein in presence of AMP-PNP
In short: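 Each value is a fold change relative to the detergent-processed vehicle, calculated per replicate from vsn-normalised intensities. Jurkat crude lysate received eight concentrations (0.1 to 10 mM) for 10 min at room temperature and 3 min at 37 °C, then was solubilised in 0.8% NP40 with benzonase (60 min, 4 °C). The ultracentrifuged supernatant was TMT-labelled and run by LC-MS/MS in three independent experiments.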

Sequences of proteins named here, by UniProt entry; tags and fusion partners are left off. A change or cut given only in a name is not applied to a line headed by its entry.
UniProt P28290: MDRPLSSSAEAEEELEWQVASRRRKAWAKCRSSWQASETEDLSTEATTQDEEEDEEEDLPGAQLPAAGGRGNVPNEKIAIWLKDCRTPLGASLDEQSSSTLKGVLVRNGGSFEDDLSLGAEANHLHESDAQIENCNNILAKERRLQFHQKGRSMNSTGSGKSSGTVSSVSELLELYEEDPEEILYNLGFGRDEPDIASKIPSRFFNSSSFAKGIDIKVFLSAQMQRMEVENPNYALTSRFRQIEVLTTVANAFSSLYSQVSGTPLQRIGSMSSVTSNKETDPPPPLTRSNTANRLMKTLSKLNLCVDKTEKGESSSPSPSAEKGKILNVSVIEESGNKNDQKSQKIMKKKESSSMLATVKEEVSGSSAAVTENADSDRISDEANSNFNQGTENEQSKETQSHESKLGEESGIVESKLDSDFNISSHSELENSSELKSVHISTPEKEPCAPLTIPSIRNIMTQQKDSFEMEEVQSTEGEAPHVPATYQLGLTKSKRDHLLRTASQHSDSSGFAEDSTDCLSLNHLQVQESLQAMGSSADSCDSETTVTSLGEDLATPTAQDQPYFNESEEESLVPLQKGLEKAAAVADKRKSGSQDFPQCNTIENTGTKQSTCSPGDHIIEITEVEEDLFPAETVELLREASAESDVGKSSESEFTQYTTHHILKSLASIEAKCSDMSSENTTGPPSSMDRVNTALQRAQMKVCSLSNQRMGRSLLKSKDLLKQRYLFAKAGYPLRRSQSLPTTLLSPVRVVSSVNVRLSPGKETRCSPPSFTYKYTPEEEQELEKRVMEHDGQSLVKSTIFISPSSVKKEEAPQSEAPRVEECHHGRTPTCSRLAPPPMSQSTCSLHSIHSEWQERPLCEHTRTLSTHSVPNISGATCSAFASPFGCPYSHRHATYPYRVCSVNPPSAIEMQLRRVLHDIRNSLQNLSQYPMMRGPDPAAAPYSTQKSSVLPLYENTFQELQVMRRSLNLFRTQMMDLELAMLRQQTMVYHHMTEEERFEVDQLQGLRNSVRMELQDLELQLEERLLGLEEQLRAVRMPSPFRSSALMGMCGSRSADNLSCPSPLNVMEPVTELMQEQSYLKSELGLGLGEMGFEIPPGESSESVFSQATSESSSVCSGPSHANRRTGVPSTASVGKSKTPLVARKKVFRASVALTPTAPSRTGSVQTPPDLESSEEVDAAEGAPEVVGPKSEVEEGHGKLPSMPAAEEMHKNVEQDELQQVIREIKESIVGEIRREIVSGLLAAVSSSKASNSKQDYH
UniProt Q13439: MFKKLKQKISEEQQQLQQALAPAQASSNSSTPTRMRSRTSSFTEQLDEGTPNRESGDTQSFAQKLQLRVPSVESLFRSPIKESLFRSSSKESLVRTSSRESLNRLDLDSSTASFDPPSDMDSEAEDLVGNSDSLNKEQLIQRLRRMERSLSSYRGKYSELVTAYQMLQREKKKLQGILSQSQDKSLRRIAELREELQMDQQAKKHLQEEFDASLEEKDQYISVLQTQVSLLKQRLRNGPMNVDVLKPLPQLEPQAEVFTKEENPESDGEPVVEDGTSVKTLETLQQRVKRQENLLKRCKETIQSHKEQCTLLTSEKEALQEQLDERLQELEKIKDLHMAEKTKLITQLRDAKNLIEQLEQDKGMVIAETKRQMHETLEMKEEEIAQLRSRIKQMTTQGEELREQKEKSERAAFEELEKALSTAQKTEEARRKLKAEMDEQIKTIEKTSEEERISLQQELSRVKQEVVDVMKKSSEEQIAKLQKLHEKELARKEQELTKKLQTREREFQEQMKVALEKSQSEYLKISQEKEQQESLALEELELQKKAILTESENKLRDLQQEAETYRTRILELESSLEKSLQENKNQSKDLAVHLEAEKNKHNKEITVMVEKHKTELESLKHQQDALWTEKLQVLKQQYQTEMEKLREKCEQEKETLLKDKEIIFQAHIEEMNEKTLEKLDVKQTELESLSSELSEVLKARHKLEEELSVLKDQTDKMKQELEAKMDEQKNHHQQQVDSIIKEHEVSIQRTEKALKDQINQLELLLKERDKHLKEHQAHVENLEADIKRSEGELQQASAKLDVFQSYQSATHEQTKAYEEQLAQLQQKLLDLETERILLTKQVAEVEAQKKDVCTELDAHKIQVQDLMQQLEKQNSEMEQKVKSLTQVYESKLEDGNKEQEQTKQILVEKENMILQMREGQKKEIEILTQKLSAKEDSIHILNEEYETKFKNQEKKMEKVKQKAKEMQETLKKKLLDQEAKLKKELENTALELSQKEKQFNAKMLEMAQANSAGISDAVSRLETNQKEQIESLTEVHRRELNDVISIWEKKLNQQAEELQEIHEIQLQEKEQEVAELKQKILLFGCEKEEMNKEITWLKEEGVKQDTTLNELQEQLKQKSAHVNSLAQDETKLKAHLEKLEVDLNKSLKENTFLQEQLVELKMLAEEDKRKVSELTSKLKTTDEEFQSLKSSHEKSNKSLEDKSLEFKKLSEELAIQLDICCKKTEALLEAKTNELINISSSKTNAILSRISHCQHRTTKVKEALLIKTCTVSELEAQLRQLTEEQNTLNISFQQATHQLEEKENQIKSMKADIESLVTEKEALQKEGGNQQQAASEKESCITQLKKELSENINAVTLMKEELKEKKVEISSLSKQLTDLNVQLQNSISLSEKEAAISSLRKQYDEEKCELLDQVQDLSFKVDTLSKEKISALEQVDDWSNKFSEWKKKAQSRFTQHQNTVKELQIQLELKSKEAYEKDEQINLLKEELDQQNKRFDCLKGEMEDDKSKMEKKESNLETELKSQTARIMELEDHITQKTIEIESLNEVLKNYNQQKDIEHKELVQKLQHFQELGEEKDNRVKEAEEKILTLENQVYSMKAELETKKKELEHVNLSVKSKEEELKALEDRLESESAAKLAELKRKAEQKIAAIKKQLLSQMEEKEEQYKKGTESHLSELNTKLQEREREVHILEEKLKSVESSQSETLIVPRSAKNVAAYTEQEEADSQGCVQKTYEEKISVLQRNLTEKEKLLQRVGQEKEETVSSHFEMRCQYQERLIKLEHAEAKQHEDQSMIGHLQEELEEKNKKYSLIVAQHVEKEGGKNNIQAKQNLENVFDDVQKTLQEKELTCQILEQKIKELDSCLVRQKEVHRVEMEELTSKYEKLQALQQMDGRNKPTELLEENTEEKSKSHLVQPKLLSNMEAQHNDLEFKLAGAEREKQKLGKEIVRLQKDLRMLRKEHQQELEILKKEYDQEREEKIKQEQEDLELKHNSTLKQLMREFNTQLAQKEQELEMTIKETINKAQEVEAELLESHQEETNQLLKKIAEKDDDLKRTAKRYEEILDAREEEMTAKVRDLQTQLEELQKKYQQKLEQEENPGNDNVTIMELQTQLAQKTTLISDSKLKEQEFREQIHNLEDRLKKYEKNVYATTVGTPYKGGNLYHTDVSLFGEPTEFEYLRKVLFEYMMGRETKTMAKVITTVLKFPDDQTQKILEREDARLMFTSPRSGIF
UniProt Q9H8W3: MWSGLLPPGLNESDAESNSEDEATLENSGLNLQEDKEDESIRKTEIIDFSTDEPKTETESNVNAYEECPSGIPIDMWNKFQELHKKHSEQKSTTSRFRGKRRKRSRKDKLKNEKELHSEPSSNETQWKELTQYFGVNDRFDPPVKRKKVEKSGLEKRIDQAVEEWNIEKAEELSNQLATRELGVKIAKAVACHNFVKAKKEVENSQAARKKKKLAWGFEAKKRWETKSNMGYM
UniProt Q9NPF2: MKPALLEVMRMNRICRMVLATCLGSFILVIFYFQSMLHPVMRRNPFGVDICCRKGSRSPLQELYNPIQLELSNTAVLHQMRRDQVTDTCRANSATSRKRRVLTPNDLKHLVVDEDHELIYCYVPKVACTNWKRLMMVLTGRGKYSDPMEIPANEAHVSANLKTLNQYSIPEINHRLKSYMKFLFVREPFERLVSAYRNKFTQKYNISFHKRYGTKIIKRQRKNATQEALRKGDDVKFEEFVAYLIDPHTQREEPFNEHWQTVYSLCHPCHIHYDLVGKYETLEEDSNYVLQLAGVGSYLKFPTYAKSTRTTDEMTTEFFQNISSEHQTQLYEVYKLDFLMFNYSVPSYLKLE
UniProt Q9BZZ5: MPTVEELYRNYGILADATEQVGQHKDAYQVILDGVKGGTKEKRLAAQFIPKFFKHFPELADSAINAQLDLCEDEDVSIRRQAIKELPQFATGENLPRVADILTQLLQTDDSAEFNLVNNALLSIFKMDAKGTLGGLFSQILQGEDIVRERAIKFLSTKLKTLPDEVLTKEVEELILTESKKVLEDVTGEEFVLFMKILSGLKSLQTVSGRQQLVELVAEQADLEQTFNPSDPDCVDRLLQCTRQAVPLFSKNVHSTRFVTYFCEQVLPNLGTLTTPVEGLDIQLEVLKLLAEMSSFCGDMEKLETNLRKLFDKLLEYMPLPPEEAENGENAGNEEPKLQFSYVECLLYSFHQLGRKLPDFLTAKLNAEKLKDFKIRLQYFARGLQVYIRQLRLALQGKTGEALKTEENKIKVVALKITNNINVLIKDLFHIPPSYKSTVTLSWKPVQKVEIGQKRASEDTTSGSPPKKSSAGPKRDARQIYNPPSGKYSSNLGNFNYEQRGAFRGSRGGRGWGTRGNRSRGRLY
UniProt P48382: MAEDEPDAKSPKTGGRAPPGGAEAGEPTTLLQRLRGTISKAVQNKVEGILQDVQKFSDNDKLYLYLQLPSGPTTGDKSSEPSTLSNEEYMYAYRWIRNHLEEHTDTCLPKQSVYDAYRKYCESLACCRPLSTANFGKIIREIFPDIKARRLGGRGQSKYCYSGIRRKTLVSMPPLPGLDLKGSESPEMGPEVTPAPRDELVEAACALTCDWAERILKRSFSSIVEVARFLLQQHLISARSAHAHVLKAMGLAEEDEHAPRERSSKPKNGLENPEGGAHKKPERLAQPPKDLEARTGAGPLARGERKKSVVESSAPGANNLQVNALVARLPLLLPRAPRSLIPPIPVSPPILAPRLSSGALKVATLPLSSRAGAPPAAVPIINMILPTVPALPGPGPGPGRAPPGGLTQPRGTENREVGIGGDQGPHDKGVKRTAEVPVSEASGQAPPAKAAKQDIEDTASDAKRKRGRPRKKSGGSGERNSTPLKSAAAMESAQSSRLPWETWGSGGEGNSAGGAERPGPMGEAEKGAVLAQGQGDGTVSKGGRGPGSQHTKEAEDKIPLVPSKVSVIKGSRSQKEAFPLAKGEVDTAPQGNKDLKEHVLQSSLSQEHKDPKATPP
UniProt P63104: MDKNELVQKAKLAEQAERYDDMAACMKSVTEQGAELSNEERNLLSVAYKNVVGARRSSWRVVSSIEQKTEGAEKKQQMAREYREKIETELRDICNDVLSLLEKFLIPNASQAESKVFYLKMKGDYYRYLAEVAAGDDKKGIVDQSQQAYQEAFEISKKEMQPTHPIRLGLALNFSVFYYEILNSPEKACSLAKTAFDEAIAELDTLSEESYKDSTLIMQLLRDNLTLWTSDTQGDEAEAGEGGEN
UniProt Q15843, whole entry: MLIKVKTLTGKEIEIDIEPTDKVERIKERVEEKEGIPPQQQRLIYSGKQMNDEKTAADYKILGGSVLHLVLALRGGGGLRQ
UniProt Q86VM9: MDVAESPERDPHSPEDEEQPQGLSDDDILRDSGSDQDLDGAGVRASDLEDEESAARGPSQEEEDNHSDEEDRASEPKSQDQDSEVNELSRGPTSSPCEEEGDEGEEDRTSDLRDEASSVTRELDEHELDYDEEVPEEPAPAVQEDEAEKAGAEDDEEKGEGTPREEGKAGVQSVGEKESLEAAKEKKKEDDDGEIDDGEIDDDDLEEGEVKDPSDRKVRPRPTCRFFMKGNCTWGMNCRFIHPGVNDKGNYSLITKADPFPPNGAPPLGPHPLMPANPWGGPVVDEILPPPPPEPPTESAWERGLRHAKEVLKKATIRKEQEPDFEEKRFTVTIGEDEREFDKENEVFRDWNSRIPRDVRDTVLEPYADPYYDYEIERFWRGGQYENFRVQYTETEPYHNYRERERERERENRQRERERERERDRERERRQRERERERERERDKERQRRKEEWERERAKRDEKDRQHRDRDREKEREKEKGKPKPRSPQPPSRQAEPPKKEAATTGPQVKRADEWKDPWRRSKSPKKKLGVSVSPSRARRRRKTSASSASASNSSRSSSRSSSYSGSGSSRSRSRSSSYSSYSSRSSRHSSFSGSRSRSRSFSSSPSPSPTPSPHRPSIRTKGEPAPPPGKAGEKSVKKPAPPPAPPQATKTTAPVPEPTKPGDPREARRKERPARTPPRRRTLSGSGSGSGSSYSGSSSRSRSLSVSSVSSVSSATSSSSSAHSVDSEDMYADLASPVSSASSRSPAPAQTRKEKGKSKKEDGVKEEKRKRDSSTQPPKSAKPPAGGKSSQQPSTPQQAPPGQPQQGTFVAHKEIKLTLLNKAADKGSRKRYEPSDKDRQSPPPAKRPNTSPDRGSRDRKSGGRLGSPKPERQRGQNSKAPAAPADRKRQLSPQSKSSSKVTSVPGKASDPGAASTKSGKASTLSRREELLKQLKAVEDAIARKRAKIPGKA

| Target | NP40-soluble protein abundance (concentration: 0.1mM) | NP40-soluble protein abundance (concentration: 0.5mM) |
| --- | --- | --- |
| E9PHV5 and related entries (UniProt P28290) | 0.968 ± 0.042 | 1.01 ± 0.025 |
| E9PMH5 and related entries (UniProt Q13490) | 1.01 ± 0.021 | 0.975 ± 0.064 |
| E7EVX2 and related entries (UniProt Q13439) | 0.98 ± 0.022 | 0.986 ± 0.045 |
| E9PLL0 and related entries (UniProt Q96EY5) | 1.02 ± 0.047 | 1.023 ± 0.0084 |
| E9PM92 and related entries (UniProt O00193+E9PM92) | 1.03 ± 0.024 | 1.15 ± 0.12 |
| F5H101 and related entries (UniProt Q76FK4) | 1.01 ± 0.023 | 1.03 ± 0.029 |
| F8VXC8 and related entries (UniProt Q8TAQ2) | 1.004 ± 0.0082 | 1.02 ± 0.043 |
| F2Z2Y3 and related entries (UniProt Q9H8W3) | 1.01 ± 0.005 | 1.03 ± 0.022 |
| E9PG19 and related entries (UniProt O94868) | 0.984 ± 0.01 | 0.983 ± 0.03 |
| G3V3H3 and related entries (UniProt Q07866) | 0.971 ± 0.038 | 1.01 ± 0.03 |
| F5GZ90 and related entries (UniProt Q9NZJ0) | 0.989 ± 0.029 | 0.959 ± 0.035 |
| F8W1S5 and related entries (UniProt Q00537) | 1.02 ± 0.029 | 1.01 ± 0.027 |
| F8VXK3 and related entries (UniProt Q9NPF2) | 0.994 ± 0.015 | 0.969 ± 0.015 |
| F8WEW6 and related entries (UniProt O76064) | 0.928 ± 0.017 | 0.993 ± 0.012 |
| G3V1C3 and related entries (UniProt Q9BZZ5) | 0.9394 ± 0.0061 | 0.936 ± 0.017 |
| G3V0H0 and related entries (UniProt O43913) | 0.991 ± 0.034 | 0.982 ± 0.063 |
| E9PHG5 and related entries (UniProt Q6UW02) | 0.983 ± 0.021 | 1 ± 0.065 |
| E9PNT2 (UniProt Q6ZUM4) | 1.02 ± 0.018 | 0.997 ± 0.026 |
| E9PH99 and related entries (UniProt Q9Y4E5) | 1.04 ± 0.044 | 1.05 ± 0.064 |
| E9PDF6 and related entries (UniProt O43795) | 1.55 ± 0.26 | 1.97 ± 0.37 |
| F8W8D3 and related entries (UniProt Q14493) | 1.01 ± 0.016 | 1.05 ± 0.031 |
| F8WDV0 and related entries (UniProt Q9UI26) | 1 ± 0.065 | 0.998 ± 0.083 |

An excerpt from further up, as a working copy:

| Target | NP40-soluble protein abundance (concentration: 0.1mM) | NP40-soluble protein abundance (concentration: 0.5mM) |
| --- | --- | --- |
| F2Z2Y3 and related entries (UniProt Q9H8W3) | 1.01 ± 0.005 | 1.03 ± 0.022 |
| E9PG19 and related entries (UniProt O94868) | 0.984 ± 0.01 | 0.983 ± 0.03 |
| G3V3H3 and related entries (UniProt Q07866) | 0.971 ± 0.038 | 1.01 ± 0.03 |

Further entries follow:

| Target | NP40-soluble protein abundance (concentration: 0.1mM) | NP40-soluble protein abundance (concentration: 0.5mM) |
| --- | --- | --- |
| F8W689 and related entries (UniProt P48382) | 1 ± 0.037 | 1.04 ± 0.11 |
| G3V1S4 and related entries (UniProt Q9Y324) | 1.001 ± 0.0077 | 1.011 ± 0.0098 |
| E7EVZ2 and related entries (UniProt P63104) | 0.996 ± 0.037 | 1.04 ± 0.073 |
| G3V1P3 and related entries (UniProt Q969J3+G3V1P3) | 1.01 ± 0.079 | 0.998 ± 0.035 |
| F5GWN5 and related entries (UniProt O00750) | 0.994 ± 0.018 | 0.979 ± 0.025 |
| E7EQY1 and related entries (UniProt Q96C01) | 0.975 ± 0.026 | 1.06 ± 0.12 |
| E9PGC5 and related entries (UniProt Q15262) | 0.996 ± 0.014 | 0.9901 ± 0.0051 |
| F8WCF9 and related entries (UniProt Q8N465) | 1.014 ± 0.0029 | 1.04 ± 0.036 |
| E7EPP6 and related entries (UniProt O14757) | 1.01 ± 0.018 | 0.961 ± 0.026 |
| E9PL57 and related entries (UniProt Q15843) | 0.934 ± 0.053 | 0.959 ± 0.011 |
| E7ER02 and related entries (UniProt Q9NZJ5) | 0.995 ± 0.026 | 0.984 ± 0.051 |
| E9PLV1 and related entries (UniProt Q9NQV6) | 1.02 ± 0.012 | 1.01 ± 0.012 |
| F5GYQ1 and related entries (UniProt P61421) | 1.04 ± 0.028 | 0.981 ± 0.084 |
| F8W8I6 and related entries (UniProt P31483) | 0.994 ± 0.022 | 0.98 ± 0.016 |
| F8WE26 and related entries (UniProt O75431) | 1.01 ± 0.014 | 0.997 ± 0.051 |
| F5H5P2 and related entries (UniProt P12694+F5H5P2) | 1.01 ± 0.045 | 1.05 ± 0.046 |
| E7EUI6 and related entries (UniProt P05556) | 0.941 ± 0.015 | 0.984 ± 0.049 |
| E7EPM6 and related entries (UniProt P33121) | 0.986 ± 0.02 | 0.948 ± 0.053 |
| E7EN86 and related entries (UniProt P52747) | 0.972 ± 0.031 | 0.985 ± 0.033 |
| G0XQ39 and related entries (UniProt Q13586) | 0.9874 ± 0.0067 | 1 ± 0.034 |
| E7ERS3 and related entries (UniProt Q86VM9) | 0.987 ± 0.031 | 1.03 ± 0.046 |
